Assay results reported in article PMC4130924 (Protein & Cell, 2014).
No constants are given. Whether binding was seen depends on the method and setting.

Chains of the proteins cited; added tags and fusions are not shown. Lines headed by an entry give the natural chain unless they say otherwise; changes in a name come on top. Residues count along the entry.
UniProt Q9Y5K5, residues 1-255: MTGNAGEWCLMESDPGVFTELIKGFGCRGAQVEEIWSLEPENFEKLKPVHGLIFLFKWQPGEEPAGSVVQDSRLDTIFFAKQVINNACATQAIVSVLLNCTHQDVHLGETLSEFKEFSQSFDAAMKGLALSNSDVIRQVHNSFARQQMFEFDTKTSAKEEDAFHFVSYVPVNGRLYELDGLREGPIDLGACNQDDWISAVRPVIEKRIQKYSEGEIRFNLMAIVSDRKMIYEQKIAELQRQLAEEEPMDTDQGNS

Target: Uch37Δ^Hb,Hc,KEKE (human) (UniProt Q9Y5K5)
Assay: SEC; approximately 10 mg/mL loaded (Table 1: 10.0 for Uch37; >7.0, >4.0, >1.5 for the truncations) on a 120-mL Superdex G200 column; 20 mmol/L Tris-HCl pH 8.0, 200 mmol/L NaCl, 2 mmol/L DTT; MW from a standard curve; both purified

binding: no binding (tested: >7.0 mg/mL)
Substance: Uch37Δ^Hb,Hc,KEKE (from UniProt Q9Y5K5 1-255) (domain or fragment)
